Results: the supplement of paper PMC5355238
Structures can show the parent of a compound that is named as a salt. The list shows a part of the results. Most entries show no effect beyond the scatter of the controls.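 Reh is a human leukemia cell line; the read-out is the median γH2AX antibody signal in S-phase cells by flow cytometry, with the score counting standard deviations from the median difference of each paired set of plates. Scores above 2.5 were called candidate hits, while scores below -2 mark compounds that lowered the MK1775-induced damage.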

Tested on: Reh
Experiment: Z' of S-phase gammaH2AX difference (drug + MK1775 minus drug alone) (Z-score); higher = stronger synergistic S-phase DNA damage with MK1775
Conditions: MK1775 concentration 400 nM; first compound 10 µM; 4 h

SMILES	Z' of S-phase gammaH2AX difference (Z-score)
CC1=C(CC(=O)O)c2cc(F)ccc2/C1=C\c1ccc([S+](C)[O-])cc1 (stereo unspecified) [Sulindac] + C=CCn1c(=O)c2cnc(Nc3ccc(N4CCN(C)CC4)cc3)nc2n1-c1cccc(C(C)(C)O)n1 [MK1775]	inactive: -0.479
CN(C)CCCO[C@@H]1[C@H]2OC(C)(C)O[C@H]2O[C@@H]1[C@H](O)CO [Amiprilose hydrochloride] + C=CCn1c(=O)c2cnc(Nc3ccc(N4CCN(C)CC4)cc3)nc2n1-c1cccc(C(C)(C)O)n1 [MK1775]	inactive: -0.575
Cc1nc(N)sc1-c1ccnc(Nc2ccc(N3CCOCC3)cc2)n1 + C=CCn1c(=O)c2cnc(Nc3ccc(N4CCN(C)CC4)cc3)nc2n1-c1cccc(C(C)(C)O)n1 [MK1775]	inactive: -0.977
CCc1cccc2c3c([nH]c12)C(CC)(CC(=O)O)OCC3 (stereo unspecified) [Etodolac] + C=CCn1c(=O)c2cnc(Nc3ccc(N4CCN(C)CC4)cc3)nc2n1-c1cccc(C(C)(C)O)n1 [MK1775]	inactive: -0.702
C[C@@H]1CN(CC(=O)Nc2ccc3c(c2)Cc2cccc(-c4cc(=O)cc(N5CCOCC5)o4)c2S3)C[C@H](C)O1 + C=CCn1c(=O)c2cnc(Nc3ccc(N4CCN(C)CC4)cc3)nc2n1-c1cccc(C(C)(C)O)n1 [MK1775]	inactive: -0.214
COc1ccc(CNC(=O)Nc2ncc([N+](=O)[O-])s2)cc1 + C=CCn1c(=O)c2cnc(Nc3ccc(N4CCN(C)CC4)cc3)nc2n1-c1cccc(C(C)(C)O)n1 [MK1775]	inactive: 0.0362
CCCn1c(=O)c2[nH]c(-c3ccc(S(=O)(=O)O)cc3)nc2n(CCC)c1=O [1,3-Dipropyl-8-p-sulfophenylxanthine] + C=CCn1c(=O)c2cnc(Nc3ccc(N4CCN(C)CC4)cc3)nc2n1-c1cccc(C(C)(C)O)n1 [MK1775]	inactive: -0.438
Cc1ccccc1N1C(=O)c2cc(S(N)(=O)=O)c(Cl)cc2NC1C (stereo unspecified) [Metolazone] + C=CCn1c(=O)c2cnc(Nc3ccc(N4CCN(C)CC4)cc3)nc2n1-c1cccc(C(C)(C)O)n1 [MK1775]	inactive: 0.48
O=C1N(c2ccccc2)c2ccccc2C1(Cc1ccncc1)Cc1ccncc1 [Linopirdine] + C=CCn1c(=O)c2cnc(Nc3ccc(N4CCN(C)CC4)cc3)nc2n1-c1cccc(C(C)(C)O)n1 [MK1775]	inactive: 0.597
COc1nc(-c2ccc3c(c2)OCO3)n(-c2ccc(NC(=O)CSc3ccccc3)cc2)n1 [SecinH3] + C=CCn1c(=O)c2cnc(Nc3ccc(N4CCN(C)CC4)cc3)nc2n1-c1cccc(C(C)(C)O)n1 [MK1775]	inactive: 0.23
Nc1cccc2c1CN(C1CCC(=O)NC1=O)C2=O (stereo unspecified) [Lenalidomide] + C=CCn1c(=O)c2cnc(Nc3ccc(N4CCN(C)CC4)cc3)nc2n1-c1cccc(C(C)(C)O)n1 [MK1775]	inactive: 0.0806
Nc1nc(SCc2ccc([N+](=O)[O-])cc2)c2ncn([C@@H]3O[C@H](CO)[C@H](O)C3O)c2n1 (stereo partly drawn) [S-(4-Nitrobenzyl)-6-thioguanosine] + C=CCn1c(=O)c2cnc(Nc3ccc(N4CCN(C)CC4)cc3)nc2n1-c1cccc(C(C)(C)O)n1 [MK1775]	inactive: 0.0301
C[C@]12CC[C@@H]3c4ccc(O)cc4CC[C@H]3[C@@H]1CCC2=O [Estrone] + C=CCn1c(=O)c2cnc(Nc3ccc(N4CCN(C)CC4)cc3)nc2n1-c1cccc(C(C)(C)O)n1 [MK1775]	inactive: 0.452
CCCCCCCCc1ccc(CCC(N)(CO)CO)cc1 [Fingolimod (FTY720)] + C=CCn1c(=O)c2cnc(Nc3ccc(N4CCN(C)CC4)cc3)nc2n1-c1cccc(C(C)(C)O)n1 [MK1775]	inactive: -0.675
CCCCCCCC/C=C\CCCCCCCC(=O)NCCc1ccc(O)c(O)c1 [N-Oleoyldopamine] + C=CCn1c(=O)c2cnc(Nc3ccc(N4CCN(C)CC4)cc3)nc2n1-c1cccc(C(C)(C)O)n1 [MK1775]	active: 10.8
CC(=O)OCC1=C(C(=O)O)N2C(=O)[C@@H](NC(=O)CSc3ccncc3)[C@H]2SC1 [Cephapirin sodium] + C=CCn1c(=O)c2cnc(Nc3ccc(N4CCN(C)CC4)cc3)nc2n1-c1cccc(C(C)(C)O)n1 [MK1775]	inactive: 0.464
CNCCC(Oc1ccccc1OC)c1ccccc1 (stereo unspecified) [Nisoxetine hydrochloride] + C=CCn1c(=O)c2cnc(Nc3ccc(N4CCN(C)CC4)cc3)nc2n1-c1cccc(C(C)(C)O)n1 [MK1775]	inactive: -0.864
CC1CNCCN1S(=O)(=O)c1cccc2cnccc12 (stereo unspecified) + C=CCn1c(=O)c2cnc(Nc3ccc(N4CCN(C)CC4)cc3)nc2n1-c1cccc(C(C)(C)O)n1 [MK1775]	inactive: -1.15

Shown as a markdown table: entries from further up

| SMILES | Z' of S-phase gammaH2AX difference (Z-score) |
| --- | --- |
| Cc1ccccc1N1C(=O)c2cc(S(N)(=O)=O)c(Cl)cc2NC1C (stereo unspecified) [Metolazone] + C=CCn1c(=O)c2cnc(Nc3ccc(N4CCN(C)CC4)cc3)nc2n1-c1cccc(C(C)(C)O)n1 [MK1775] | inactive: 0.48 |
| O=C1N(c2ccccc2)c2ccccc2C1(Cc1ccncc1)Cc1ccncc1 [Linopirdine] + C=CCn1c(=O)c2cnc(Nc3ccc(N4CCN(C)CC4)cc3)nc2n1-c1cccc(C(C)(C)O)n1 [MK1775] | inactive: 0.597 |
| COc1nc(-c2ccc3c(c2)OCO3)n(-c2ccc(NC(=O)CSc3ccccc3)cc2)n1 [SecinH3] + C=CCn1c(=O)c2cnc(Nc3ccc(N4CCN(C)CC4)cc3)nc2n1-c1cccc(C(C)(C)O)n1 [MK1775] | inactive: 0.23 |
| Nc1cccc2c1CN(C1CCC(=O)NC1=O)C2=O (stereo unspecified) [Lenalidomide] + C=CCn1c(=O)c2cnc(Nc3ccc(N4CCN(C)CC4)cc3)nc2n1-c1cccc(C(C)(C)O)n1 [MK1775] | inactive: 0.0806 |
| Nc1nc(SCc2ccc([N+](=O)[O-])cc2)c2ncn([C@@H]3O[C@H](CO)[C@H](O)C3O)c2n1 (stereo partly drawn) [S-(4-Nitrobenzyl)-6-thioguanosine] + C=CCn1c(=O)c2cnc(Nc3ccc(N4CCN(C)CC4)cc3)nc2n1-c1cccc(C(C)(C)O)n1 [MK1775] | inactive: 0.0301 |
| C[C@]12CC[C@@H]3c4ccc(O)cc4CC[C@H]3[C@@H]1CCC2=O [Estrone] + C=CCn1c(=O)c2cnc(Nc3ccc(N4CCN(C)CC4)cc3)nc2n1-c1cccc(C(C)(C)O)n1 [MK1775] | inactive: 0.452 |
| CCCCCCCCc1ccc(CCC(N)(CO)CO)cc1 [Fingolimod (FTY720)] + C=CCn1c(=O)c2cnc(Nc3ccc(N4CCN(C)CC4)cc3)nc2n1-c1cccc(C(C)(C)O)n1 [MK1775] | inactive: -0.675 |
| CCCCCCCC/C=C\CCCCCCCC(=O)NCCc1ccc(O)c(O)c1 [N-Oleoyldopamine] + C=CCn1c(=O)c2cnc(Nc3ccc(N4CCN(C)CC4)cc3)nc2n1-c1cccc(C(C)(C)O)n1 [MK1775] | active: 10.8 |
| CC(=O)OCC1=C(C(=O)O)N2C(=O)[C@@H](NC(=O)CSc3ccncc3)[C@H]2SC1 [Cephapirin sodium] + C=CCn1c(=O)c2cnc(Nc3ccc(N4CCN(C)CC4)cc3)nc2n1-c1cccc(C(C)(C)O)n1 [MK1775] | inactive: 0.464 |

(further entries)

SMILES	Z' of S-phase gammaH2AX difference (Z-score)
CC1CNCCN1S(=O)(=O)c1cccc2cnccc12 (stereo unspecified) [H-7 dihydrochloride] + C=CCn1c(=O)c2cnc(Nc3ccc(N4CCN(C)CC4)cc3)nc2n1-c1cccc(C(C)(C)O)n1 [MK1775]	inactive: -0.177
O=NN(CCCl)C(=O)NC1CCCCC1 [Lomustine (CeeNU)] + C=CCn1c(=O)c2cnc(Nc3ccc(N4CCN(C)CC4)cc3)nc2n1-c1cccc(C(C)(C)O)n1 [MK1775]	inactive: 0.209
CC1CN(S(=O)(=O)c2cccc3cnccc23)CCN1 (stereo unspecified) + C=CCn1c(=O)c2cnc(Nc3ccc(N4CCN(C)CC4)cc3)nc2n1-c1cccc(C(C)(C)O)n1 [MK1775]	inactive: -0.0899
CCOC(=O)C1=C[C@]2(CC)CCCN3CCc4c(n1c1ccccc41)[C@@H]32 [Vinpocetine] + C=CCn1c(=O)c2cnc(Nc3ccc(N4CCN(C)CC4)cc3)nc2n1-c1cccc(C(C)(C)O)n1 [MK1775]	inactive: -0.602
CCOC(=O)C1=C[C@]2(CC)CCCN3CCc4c(n1c1ccccc41)[C@@H]32 [Vinpocetine (Cavinton)] + C=CCn1c(=O)c2cnc(Nc3ccc(N4CCN(C)CC4)cc3)nc2n1-c1cccc(C(C)(C)O)n1 [MK1775]	inactive: 0.316
COc1cc(Nc2ncc(F)c(Nc3ccc4c(n3)N(COP(=O)(O)O)C(=O)C(C)(C)O4)n2)cc(OC)c1OC + C=CCn1c(=O)c2cnc(Nc3ccc(N4CCN(C)CC4)cc3)nc2n1-c1cccc(C(C)(C)O)n1 [MK1775]	inactive: -0.288
Cc1nnc(C(C)C)n1C1C[C@H]2CC[C@@H](C1)N2CC[C@H](NC(=O)C1CCC(F)(F)CC1)c1ccccc1 (stereo in doubt) [Maraviroc] + C=CCn1c(=O)c2cnc(Nc3ccc(N4CCN(C)CC4)cc3)nc2n1-c1cccc(C(C)(C)O)n1 [MK1775]	inactive: 0.211
Cn1cc(-c2ccc3nnc(C(F)(F)c4ccc5ncccc5c4)n3n2)cn1 + C=CCn1c(=O)c2cnc(Nc3ccc(N4CCN(C)CC4)cc3)nc2n1-c1cccc(C(C)(C)O)n1 [MK1775]	inactive: -0.0821
CN1[C@@H](CC(=O)c2ccccc2)CCC[C@H]1C[C@H](O)c1ccccc1 [alpha-Lobeline hydrochloride] + C=CCn1c(=O)c2cnc(Nc3ccc(N4CCN(C)CC4)cc3)nc2n1-c1cccc(C(C)(C)O)n1 [MK1775]	inactive: 0.0462
CCC(CC)CC1(C(=O)Nc2ccccc2SC(=O)C(C)C)CCCCC1 [Dalcetrapib??JTT-705??] + C=CCn1c(=O)c2cnc(Nc3ccc(N4CCN(C)CC4)cc3)nc2n1-c1cccc(C(C)(C)O)n1 [MK1775]	inactive: 0.183
CSc1nc(N)c2ncn([C@@H]3O[C@H](COP(=O)(O)OP(=O)(O)OP(=O)(O)O)[C@H](O)C3O)c2n1 (stereo partly specified) [2-Methylthioadenosine triphosphate tetrasodium] + C=CCn1c(=O)c2cnc(Nc3ccc(N4CCN(C)CC4)cc3)nc2n1-c1cccc(C(C)(C)O)n1 [MK1775]	inactive: -0.194
CC(=O)C(C)=O [2,3-Butanedione] + C=CCn1c(=O)c2cnc(Nc3ccc(N4CCN(C)CC4)cc3)nc2n1-c1cccc(C(C)(C)O)n1 [MK1775]	inactive: 0.435
C#CCN1C(C)=C(C(=O)OC)C(c2cccc([N+](=O)[O-])c2)C(C(=O)OCC)=C1C (stereo unspecified) + C=CCn1c(=O)c2cnc(Nc3ccc(N4CCN(C)CC4)cc3)nc2n1-c1cccc(C(C)(C)O)n1 [MK1775]	inactive: -0.184
N=C(N)NCCC[C@H](N)C(=O)O [L-Arginine] + C=CCn1c(=O)c2cnc(Nc3ccc(N4CCN(C)CC4)cc3)nc2n1-c1cccc(C(C)(C)O)n1 [MK1775]	inactive: -0.281
CNCCC(Oc1ccc(C(F)(F)F)cc1)c1ccccc1 (stereo unspecified) [Fluoxetine hydrochloride] + C=CCn1c(=O)c2cnc(Nc3ccc(N4CCN(C)CC4)cc3)nc2n1-c1cccc(C(C)(C)O)n1 [MK1775]	inactive: -0.785
Cc1nc2n(c(=O)c1CCN1CCC(c3noc4cc(F)ccc34)CC1)CCCC2 [Risperidone] + C=CCn1c(=O)c2cnc(Nc3ccc(N4CCN(C)CC4)cc3)nc2n1-c1cccc(C(C)(C)O)n1 [MK1775]	inactive: -0.0242
C[N+](C)([O-])CCNc1ccc(NCC[N+](C)(C)[O-])c2c1C(=O)c1c(O)ccc(O)c1C2=O [Banoxantrone dihydrochloride] + C=CCn1c(=O)c2cnc(Nc3ccc(N4CCN(C)CC4)cc3)nc2n1-c1cccc(C(C)(C)O)n1 [MK1775]	inactive: 0.194
CCCCNC(=O)NS(=O)(=O)c1ccc(C)cc1 [Tolbutamide] + C=CCn1c(=O)c2cnc(Nc3ccc(N4CCN(C)CC4)cc3)nc2n1-c1cccc(C(C)(C)O)n1 [MK1775]	inactive: 0.487
